Reference: publication PMC9873573, “Cryo-EM structure of the respiratory I + III2 supercomplex from Arabidopsis thaliana at 2 Å resolution” (Nature Plants, 2022)
These are yes or no findings as the source states them, for the method shown. Some results given as binding are weak or reduced against the parent protein; the word gives no strength.

Tests used:
[1] = target: T1, γ-type carbonic anhydrase subunit γCA2 of complex I (Arabidopsis thaliana (endogenous in cell suspension culture)) (UniProt Q9C6B3); experiment: cryo-EM structure; native I + III2 supercomplex isolated from digitonin-solubilised Arabidopsis mitochondria (sucrose gradient, Superose 6 in GDN); 30 mM Tris-HCl pH 7.4, 60 mM NaCl, 0.02% GDN; 2.36 Å for the whole supercomplex, 2.03 Å after multibody refinement, 1.9 Å after density modification; both purified
T1 sequence: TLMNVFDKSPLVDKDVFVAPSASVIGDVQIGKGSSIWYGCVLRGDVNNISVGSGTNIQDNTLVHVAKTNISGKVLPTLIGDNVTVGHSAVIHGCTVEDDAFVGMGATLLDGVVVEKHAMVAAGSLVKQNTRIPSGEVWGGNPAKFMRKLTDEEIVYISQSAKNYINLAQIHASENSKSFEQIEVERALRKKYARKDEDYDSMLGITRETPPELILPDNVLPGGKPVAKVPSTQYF

[2] = target: T2, γ-type carbonic anhydrase-like subunit γCAL2 of complex I (Arabidopsis thaliana (endogenous in cell suspension culture)) (UniProt Q9SMN1); experiment: as above
T2 sequence: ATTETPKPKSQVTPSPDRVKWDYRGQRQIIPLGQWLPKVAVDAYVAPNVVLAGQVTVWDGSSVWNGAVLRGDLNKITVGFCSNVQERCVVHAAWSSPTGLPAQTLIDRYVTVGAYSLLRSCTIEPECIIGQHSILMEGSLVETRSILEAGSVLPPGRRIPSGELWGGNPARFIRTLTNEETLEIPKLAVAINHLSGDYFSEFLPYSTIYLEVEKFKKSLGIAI

B1: γ-type carbonic anhydrase subunit γCA1 of complex I (protein, UniProt Q9FWR5 44-275)
chain: TLMNVFDKAPIVDKEAFVAPSASVIGDVHIGRGSSIWYGCVLRGDVNTVSVGSGTNIQDNSLVHVAKSNLSGKVHPTIIGDNVTIGHSAVLHGCTVEDETFIGMGATLLDGVVVEKHGMVAAGALVRQNTRIPSGEVWGGNPARFLRKLTDEEIAFISQSATNYSNLAQAHAAENAKPLNVIEFEKVLRKKHALKDEEYDSMLGIVRETPPELNLPNNILPDKETKRPSNVN
What does the source list for B1?
binding [1]: binds; binding [2]: binds

B2: γ-type carbonic anhydrase subunit γCA2 of complex I (protein, UniProt Q9C6B3 44-278)
chain: TLMNVFDKSPLVDKDVFVAPSASVIGDVQIGKGSSIWYGCVLRGDVNNISVGSGTNIQDNTLVHVAKTNISGKVLPTLIGDNVTVGHSAVIHGCTVEDDAFVGMGATLLDGVVVEKHAMVAAGSLVKQNTRIPSGEVWGGNPAKFMRKLTDEEIVYISQSAKNYINLAQIHASENSKSFEQIEVERALRKKYARKDEDYDSMLGITRETPPELILPDNVLPGGKPVAKVPSTQYF
Which binding [2] does the source give for B2 here?
Its binding is “binds”.
